Values from PubChem BioAssay AID1159598 (NIAID, 2016).

Assay: 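Canonical TLR pathway genes needed for TNF promoter response to flagellin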
Cell system: human THP-1 B5 reporter cells made macrophage-like with PMA
Reagent: single siRNA against human genes
Duration: reporter read 48 to 72 hours after siRNA transfection
Treatment: flagellin stimulation for 4 hours, dose not given
Detection: 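TNF promoter firefly luciferase over renilla after 4 h flagellin, plate median/MAD scaled, robust z versus negative controls, mean of replicates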
Scale: TNF reporter z-score: higher = stronger TNF promoter activity than controls
Call rule: 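Active means the mean reporter z is about 1.5 or more, or about -1.5 or less; values closer to zero are inactive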
Calls: active = reporter shifted beyond 1.5 z, up or down; inactive = reporter within 1.5 z of controls
Here is an unselected part of 756 deposited reagents. In the full data, 142 (19%) were called active. 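Active includes both higher and lower reporter signal; each gene has six separate siRNAs, and no gene-level summary is deposited.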 Reagents against one gene are numbered here. Not stated in the record: the amount of reagent.

Target gene | reagent no. | TNF reporter z-score | activity call
LY86 (lymphocyte antigen 86) | 1 | 0.158 | inactive
LY86 (lymphocyte antigen 86) | 2 | -0.0775 | inactive
LY86 (lymphocyte antigen 86) | 3 | 0.00538 | inactive
LY86 (lymphocyte antigen 86) | 4 | -3.09 | active
LY86 (lymphocyte antigen 86) | 5 | -0.442 | inactive
LY86 (lymphocyte antigen 86) | 6 | -0.392 | inactive
MYD88 (MYD88 innate immune signal transduction adaptor) | 1 | -6.29 | active
MYD88 (MYD88 innate immune signal transduction adaptor) | 2 | -3.29 | active
MYD88 (MYD88 innate immune signal transduction adaptor) | 3 | -7.02 | active
MYD88 (MYD88 innate immune signal transduction adaptor) | 4 | -3.84 | active
MYD88 (MYD88 innate immune signal transduction adaptor) | 5 | 0.374 | inactive
MYD88 (MYD88 innate immune signal transduction adaptor) | 6 | -1.02 | inactive
